The text below walks through data of article doi:10.1101/2023.10.13.562043.

The experiment deals with T1, ScPCS60 (S. cerevisiae) (UniProt P38137).
T1 sequence: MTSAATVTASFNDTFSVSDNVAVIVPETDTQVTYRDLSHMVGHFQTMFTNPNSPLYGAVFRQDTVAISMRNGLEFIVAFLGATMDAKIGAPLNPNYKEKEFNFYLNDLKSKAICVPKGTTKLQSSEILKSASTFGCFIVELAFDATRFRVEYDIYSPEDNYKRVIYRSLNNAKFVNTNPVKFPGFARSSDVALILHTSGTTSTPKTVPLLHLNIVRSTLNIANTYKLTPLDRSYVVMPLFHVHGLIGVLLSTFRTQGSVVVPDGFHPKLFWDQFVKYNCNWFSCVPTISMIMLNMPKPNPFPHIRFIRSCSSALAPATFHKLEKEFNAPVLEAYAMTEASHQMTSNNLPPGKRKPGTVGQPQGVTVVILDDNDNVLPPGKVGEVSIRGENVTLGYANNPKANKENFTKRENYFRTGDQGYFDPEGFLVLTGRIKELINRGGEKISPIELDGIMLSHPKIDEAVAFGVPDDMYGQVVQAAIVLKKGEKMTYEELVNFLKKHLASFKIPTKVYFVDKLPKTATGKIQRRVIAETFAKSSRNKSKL
The experiment can be described thus: two-hybrid.

Results are given in words; binding and its absence hold for the method and conditions named. Some entries that bind do so weakly or less than the wild type.

B1: ScPEX5 (protein, UniProt P35056 1-612)
chain: MDVGSCSVGNNPLAQLHKHTQQNKSLQFNQKNNGRLNESPLQGTNKPGISEAFISNVNAISQENMANMQRFINGEPLIDDKRRMEIGPSSGRLPPFSNVHSLQTSANPTQIKGVNDISHWSQEFQGSNSIQNRNADTGNSEKAWQRGSTTASSRFQYPNTMMNNYAYASMNSLSGSRLQSPAFMNQQQSGRSKEGVNEQEQQPWTDQFEKLEKEVSENLDINDEIEKEENVSEVEQNKPETVEKEEGVYGDQYQSDFQEVWDSIHKDAEEVLPSELVNDDLNLGEDYLKYLGGRVNGNIEYAFQSNNEYFNNPNAYKIGCLLMENGAKLSEAALAFEAAVKEKPDHVDAWLRLGLVQTQNEKELNGISALEECLKLDPKNLEAMKTLAISYINEGYDMSAFTMLDKWAETKYPEIWSRIKQQDDKFQKEKGFTHIDMNAHITKQFLQLANNLSTIDPEIQLCLGLLFYTKDDFDKTIDCFESALRVNPNDELMWNRLGASLANSNRSEEAIQAYHRALQLKPSFVRARYNLAVSSMNIGCFKEAAGYLLSVLSMHEVNTNNKKGDVGSLLNTYNDTVIETLKRVFIAMNRDDLLQEVKPGMDLKRFKGEFSF
For the molecule B1, the binding result was “binds”.
